For some assays here: The name of at least one read-out is uncertain. Some of these results come from one statement about several compounds together.
Key:
[1] = test system: MRSA (ATCC 35391) biofilm; test: Calgary Biofilm Device anti-biofilm activity; type: cell-based, Staphylococcus aureus; conditions: triplicate runs listed singly
[2] = test system: biofilms formed by staphylococcal bacteria; test: Biofilm eradication, text summary over the biofilms tested; type: cell-based; conditions: summary in text over MRSA, S. epidermidis and MSSA biofilms

Structure (SMILES) | MBEC = Minimum Biofilm Eradication Concentration [1] | MBEC, concentrations that eradicate the biofilms [2]
CCCCCCCCCCN1C(=O)/C(=C(/C)O)C(=O)[C@@H]1CC(C)C [Compound 13b, (S,Z)-1-decyl-3-(1-hydroxyethylidene)-5-isobutylpyrrolidine-2,4-dione] | 12.5 µg/mL | –
CN[C@H](CC(C)C)C(=O)N[C@H]1C(=O)N[C@@H](CC(N)=O)C(=O)N[C@H]2C(=O)N[C@H]3C(=O)N[C@H](C(=O)N[C@H](C(=O)O)c4cc(O)cc(O)c4-c4cc3ccc4O)[C@H](O)c3ccc(c(Cl)c3)Oc3cc2cc(c3O[C@@H]2O[C@H](CO)[C@@H](O)[C@H](O)[C@H]2O[C@H]2C[C@](C)(N)[C@H](O)[C@H](C)O2)Oc2ccc(cc2Cl)[C@H]1O [Vancomycin, vancomycin, reference compound] | – | > 400 µg/mL

Reference: patent US8552208B2, “Analogs of tetramic acid” (University of Tennesseee Research Foundation, priority 2007, dated 2013)
